Test results published in PMC7749160.
These are yes or no findings as the source states them, for the method shown. For part of these data: Binding seen in cells or lysates may run through a third protein. Some results given as binding are weak or reduced against the parent protein; the word gives no strength. Where a sequence is shown, tags or fusion partners need not be part of it.

What was measured:
[1] = target: T1, Mycobacterium smegmatis HelD-FLAG (Mycobacterium smegmatis) (UniProt A0QUE0); test: co-IP; M. smegmatis lysates (20 mM Tris-HCl pH 8, 150 mM KCl, 1 mM MgCl2) on ANTI-FLAG M2 agarose overnight at 4 °C, eluted with 3x FLAG peptide; SDS-PAGE with bands identified by mass spectrometry, or western blot (anti-β, anti-σA)
T1 sequence: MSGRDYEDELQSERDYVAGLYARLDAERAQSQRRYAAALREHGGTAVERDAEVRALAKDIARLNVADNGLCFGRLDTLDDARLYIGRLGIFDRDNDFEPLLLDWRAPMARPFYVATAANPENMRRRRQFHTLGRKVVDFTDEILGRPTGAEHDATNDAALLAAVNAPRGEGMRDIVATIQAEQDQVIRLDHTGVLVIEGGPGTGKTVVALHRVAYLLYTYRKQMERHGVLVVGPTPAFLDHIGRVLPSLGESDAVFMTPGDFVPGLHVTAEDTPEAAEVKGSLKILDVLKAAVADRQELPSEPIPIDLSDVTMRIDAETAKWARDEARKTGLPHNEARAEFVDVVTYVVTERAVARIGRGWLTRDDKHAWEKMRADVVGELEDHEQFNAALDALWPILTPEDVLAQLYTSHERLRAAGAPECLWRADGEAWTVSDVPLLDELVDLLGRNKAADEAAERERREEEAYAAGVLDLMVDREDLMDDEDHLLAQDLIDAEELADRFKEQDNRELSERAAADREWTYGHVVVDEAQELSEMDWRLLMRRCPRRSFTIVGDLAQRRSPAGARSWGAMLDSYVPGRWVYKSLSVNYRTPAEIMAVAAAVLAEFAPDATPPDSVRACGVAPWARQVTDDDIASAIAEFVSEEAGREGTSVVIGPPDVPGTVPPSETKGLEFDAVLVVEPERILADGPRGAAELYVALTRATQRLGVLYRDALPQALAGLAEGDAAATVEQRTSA

[2] = target: FLAG-tagged Mycobacterium smegmatis RNAP (FLAG on the β subunit), strain LK1468 (Mycobacterium smegmatis | Mycobacterium smegmatis (endogenous in M. smegmatis mc2 155)) (UniProt P60281+A0QSL8+A0QS66+A0QWT1); test: as above
[3] = target: T2, Mycobacterium smegmatis RbpA-FLAG (Mycobacterium smegmatis) (UniProt A0QZ11); test: as above
T2 sequence: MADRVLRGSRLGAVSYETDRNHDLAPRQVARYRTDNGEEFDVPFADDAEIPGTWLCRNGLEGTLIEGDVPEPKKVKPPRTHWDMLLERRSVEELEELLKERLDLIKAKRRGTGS

[4] = target: Mycobacterium smegmatis RNA polymerase core, recombinant (strain LK1853, for biochemical assays) (Mycobacterium smegmatis) (UniProt A0QSL8+P60281+A0QS66+A0QWT1); test: native gel or EMSA; 7% Tris-acetate native gel, 1x STB buffer (50 mM Tris-HCl pH 8.0, 5 mM Mg acetate, 100 µM DTT, 50 mM KCl, 50 µg/ml BSA); RNAP 25 pmol, HelD 125 pmol, σA 1250 pmol, RbpA 1250 pmol; RNAP first reconstituted with/without HelD (37 °C, 45 min), then RbpA and/or σA (37 °C, 45 min); proteins of each band identified by MALDI MS; both purified
[5] = target: Preformed complex of Mycobacterium smegmatis RNAP core (m3) and HelD (m1) (Mycobacterium smegmatis | Mycobacterium smegmatis (strain ATCC 700084/mc2 155)) (UniProt A0QSL8+P60281+A0QS66+A0QWT1+A0QUE0); test: as above

B1: Mycobacterium smegmatis RbpA, endogenous (protein, UniProt A0QZ11 1-114)
chain: T2 sequence
binding [1]: binds

B2: Mycobacterium smegmatis HelD (MSMEG_2174), endogenous (protein, UniProt A0QUE0 1-736)
chain: T1 sequence
binding [2]: binds
binding [3]: binds

B3: Mycobacterium smegmatis HelD (MSMEG_2174), recombinant (protein, UniProt A0QUE0 2-736)
chain: SGRDYEDELQSERDYVAGLYARLDAERAQSQRRYAAALREHGGTAVERDAEVRALAKDIARLNVADNGLCFGRLDTLDDARLYIGRLGIFDRDNDFEPLLLDWRAPMARPFYVATAANPENMRRRRQFHTLGRKVVDFTDEILGRPTGAEHDATNDAALLAAVNAPRGEGMRDIVATIQAEQDQVIRLDHTGVLVIEGGPGTGKTVVALHRVAYLLYTYRKQMERHGVLVVGPTPAFLDHIGRVLPSLGESDAVFMTPGDFVPGLHVTAEDTPEAAEVKGSLKILDVLKAAVADRQELPSEPIPIDLSDVTMRIDAETAKWARDEARKTGLPHNEARAEFVDVVTYVVTERAVARIGRGWLTRDDKHAWEKMRADVVGELEDHEQFNAALDALWPILTPEDVLAQLYTSHERLRAAGAPECLWRADGEAWTVSDVPLLDELVDLLGRNKAADEAAERERREEEAYAAGVLDLMVDREDLMDDEDHLLAQDLIDAEELADRFKEQDNRELSERAAADREWTYGHVVVDEAQELSEMDWRLLMRRCPRRSFTIVGDLAQRRSPAGARSWGAMLDSYVPGRWVYKSLSVNYRTPAEIMAVAAAVLAEFAPDATPPDSVRACGVAPWARQVTDDDIASAIAEFVSEEAGREGTSVVIGPPDVPGTVPPSETKGLEFDAVLVVEPERILADGPRGAAELYVALTRATQRLGVLYRDALPQALAGLAEGDAAATVEQRTSA
binding [4]: binds

B4: Mycobacterium smegmatis RbpA (MSMEG_3858), recombinant (protein, UniProt A0QZ11 1-114)
chain: T2 sequence
binding [5]: binds
binding [4]: binds
